Data: patent US20030175274A1
These are yes or no findings as the source states them, for the method shown. Some entries that bind do so weakly or less than the wild type.

The chains behind the UniProt entries cited, without tags or fusion partners. Where a name states a change or a piece, a line headed by the entry shows the natural chain unless it says otherwise.
UniProt P49767: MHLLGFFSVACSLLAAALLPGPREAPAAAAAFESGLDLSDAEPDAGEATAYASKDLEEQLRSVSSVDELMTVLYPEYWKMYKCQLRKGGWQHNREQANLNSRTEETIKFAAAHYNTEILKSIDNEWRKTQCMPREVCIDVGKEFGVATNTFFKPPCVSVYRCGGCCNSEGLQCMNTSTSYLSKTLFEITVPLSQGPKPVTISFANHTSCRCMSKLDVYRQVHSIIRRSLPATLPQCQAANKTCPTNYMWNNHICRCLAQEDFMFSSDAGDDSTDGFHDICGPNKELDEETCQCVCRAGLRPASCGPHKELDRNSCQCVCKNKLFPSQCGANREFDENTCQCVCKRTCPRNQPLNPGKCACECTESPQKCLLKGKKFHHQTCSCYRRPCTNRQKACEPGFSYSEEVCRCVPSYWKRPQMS

Target: human vascular endothelial growth factor 2 (VEGF-2) (human) (UniProt P49767)
Assay: phage display selection; assay format not described

| Binder | binding |
| --- | --- |
| 16C10 scFv (scFv) scFv: QMQLVQSGAEVKKPGSSVKVSCKASGGIFSSYAISWVRQAPGQGLEWMGGIIPRFGTANYAQKFEGRVTITADESTSTAYMELSSLRSEDTAVYYCARDQVRASGSYPYYYYYYMDVWGQGTLVTVSSGGGGSGGGGSGGGGSALSYVLTQPPSMSVSPGQTARITCSGDKLGDKYASWYQQKPGQSPVLVIYQDSERPSGIPERFSGSNSGNTATLTIRGTQPLDEADYYCQTWDTSTGVFGGGTQLTVLS | binds |
| 19B09 scFv (scFv) scFv: QVQLQESGPGLVKPSQTLSLTCSVSGGSISSRGYYWSWIRQHPGKGLEWIGYIYHNGNTYYNPSLKSRITMSVDTSKNQFSLKLSSVTAADTAVYFCARDKVVTGISGGFDLWGRGTLVTVSSGGGGSGGGGSGGGGSAQAVLTQPSSLSGAPGQRVTISCTGSSSNIGAGYDVHWYQHLPGTAPKLLIYGNNNRPSGVPDRFSGSKSGTSASLTITGLQAEDEADYYCQSDDSLSDSVVFGGGTQLTVLS | binds |
| 16B06 scFv (scFv) scFv: EVQLVETGGGFVRPGGSLRLSCAASGFTFSNYAMTWFRQAPGKGLEWVSDISGDGIGTYNADSVKGRFTISRDNSNSILYLQMNSLRAEDTAVYYCAKDRWYTSGWIFDYWGKGTLVTVSSGGGGSGGGGSGGGGSAQAVLTQPSSMSGAPGQRVTISCTGSSSNIGAGYDVHWYQQLPGTAPKLLIYANNNRPSGVPARFSGSKSGTSAYLAIAGLQAADESDYYCQSYDSYLGDSVFGGGTKLTV | binds |
| 20G02 scFv (scFv) scFv: EVQLLESGGGLVQPGGSLRLSCAASGFTFSSYAMSWARQAPGKGLEWVSAISGSGGSTYYADSVKGRFTISRDNSKNTLYLQMNSLRAEDTAVYYCARFSRNSWENWGRGTLVTVSSGGGGSGGGGSGGGGSAQAVVIQEPSFSVSPGGTVTLTCGLSSGSVSTSNYPSWHRQTPGQAPRTLIYNTNTRSSGVPDRFSGSILGNKAALTITGAQADDESDYYCALHMRSGLSVFGGGTKVTVLG | binds |

Second part, the binder after the results:

| binding | Binder |
| --- | --- |
| binds | 72D09 scFv (scFv) scFv: EVQLLKSGGGLVQPGGSLRLSCAASGFTFSSYAMSWVRQAPGKGLEWVSAISGSGGSTYYADSVKGRFTISRDNSKNTLYLQMNSLRAEDTAVYYCARDLSAGFFDPWGRGTMVTVSSGGGGSGGGGSGGGGSAQSVLTQPPSSSGTPGQRVTISCSGSSSNIGRHTVSWYQQVPGTAPKLLIYSDDHRPSGVPDRFSASKSGTSASLTITGLQSEDEADYYCAAWDDSLNGPWVFGGGTKLTVLG |
| binds | 25A07 scFv (scFv) scFv: EVQLLESGGGLVQPEGSLRLSCAASGFTFSSYAMSWVRQAPGKGLEWVSAISGSGGSTYYADSVKGRFTISRDNSKNTLYLQMNSLRAEDTAVYYCARDLSDSKFDPWGRGSMVTVSSGGGGSGGGGSGGGGSALSYELTQPPSSSGTPGQRVTISCSGSSSNIGRHTVSWYQQVPGTAPKLLIYSDDHRPSGVPDRFSASKSGTSASLTITGLQSEDEADYYCAAWDDSLNGPWVFGGGTKLTVLG |
| binds | 69D09 scFv (scFv) scFv: EVRLLESGGGLVQPGGSLRLSCAASGFTFRPRAMAWVRQAPGKGLEWVSSISAQGASAYYADSVKGRFTISRDNSKNTLYLQMNSLRAEDTAVYYCARDLSVSGFGPWGRGTMVAVSSGGGGPGGGGSGGGRSALSYELTQPPSSSGTPGQRVTISCSGSSSNIGRHTVSWYQQVPGTAPKLLIYSDDHRPSGVPDRFSASKSGTSASLTITGLQSEDEADYYCAAWDDSLNGPWVFGGGTKLTVLG |
| binds | 32G10X scFv (scFv) scFv: QMQLVQSGAEVKKPGSSVKVSCKASGGIFSSYAISWVRQAPGQGLEWMGGIIPRFGTANYAQKFEGRVTITADESTSTAYMELSSLRSEDTAVYYCARDTVKSSGSYPYYNYYYMDVWGQGTLVTVSSSYVLTQPPSVSVSPGQTASITCSGDKLGDKYASWYQQKPGQSPVLVIHQDNKRPSGIPERFSGSNSGNTATLTISGTQAMDEADYYCQAWDSSLGVFGTGTKVTVLG |
| binds | 20G11 scFv (scFv) scFv: EVQLLESGGGLVQPGGSLRLSCAASGFTFSSYAMSWARQAPGKGLEWVSAISGSGGSTYYADSVKGRFTISRDNSKNTLYLQMNSLRAEDTAVYYCARWVGGNEGSWSDWGQGTLVTVSSGGGGSGGGGSGGGGSALNFMLTQPHSVSESPGKTVTISCTRSGGSIASNYVQWYQQRPGSVPTTLIYEDHKRPSGVPDRFSGSIDSSSNSASLTISGLKTEDEADYYCQSYDTSAWVFGGGTKLTVLG |
